Experimental findings from PMC5009256 are described below.

Chains of the proteins cited; added tags and fusions are not shown.
UniProt P10275: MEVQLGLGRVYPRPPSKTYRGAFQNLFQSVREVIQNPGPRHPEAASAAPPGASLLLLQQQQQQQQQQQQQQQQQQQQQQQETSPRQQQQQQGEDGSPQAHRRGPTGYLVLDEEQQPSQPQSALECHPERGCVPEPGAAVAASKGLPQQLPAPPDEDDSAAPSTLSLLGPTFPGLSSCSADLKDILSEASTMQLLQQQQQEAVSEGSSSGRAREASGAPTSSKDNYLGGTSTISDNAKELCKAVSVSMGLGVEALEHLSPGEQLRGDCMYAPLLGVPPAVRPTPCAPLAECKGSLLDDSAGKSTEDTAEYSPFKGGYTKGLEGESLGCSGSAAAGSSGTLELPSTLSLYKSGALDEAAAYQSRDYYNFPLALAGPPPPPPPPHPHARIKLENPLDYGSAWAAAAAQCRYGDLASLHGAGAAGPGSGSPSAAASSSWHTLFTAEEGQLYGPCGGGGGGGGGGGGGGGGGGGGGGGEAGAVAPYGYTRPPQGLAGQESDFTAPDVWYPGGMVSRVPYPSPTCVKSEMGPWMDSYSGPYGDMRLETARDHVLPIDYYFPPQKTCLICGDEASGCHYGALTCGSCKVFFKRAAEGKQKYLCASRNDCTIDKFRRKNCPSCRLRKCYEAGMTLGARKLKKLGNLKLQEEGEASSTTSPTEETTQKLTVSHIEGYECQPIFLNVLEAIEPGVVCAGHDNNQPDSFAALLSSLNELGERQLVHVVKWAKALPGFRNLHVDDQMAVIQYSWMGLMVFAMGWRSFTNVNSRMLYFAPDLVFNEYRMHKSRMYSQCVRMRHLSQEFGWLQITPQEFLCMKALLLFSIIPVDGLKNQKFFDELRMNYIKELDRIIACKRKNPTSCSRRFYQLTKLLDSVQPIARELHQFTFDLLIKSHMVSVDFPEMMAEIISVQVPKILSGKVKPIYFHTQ
UniProt O14818: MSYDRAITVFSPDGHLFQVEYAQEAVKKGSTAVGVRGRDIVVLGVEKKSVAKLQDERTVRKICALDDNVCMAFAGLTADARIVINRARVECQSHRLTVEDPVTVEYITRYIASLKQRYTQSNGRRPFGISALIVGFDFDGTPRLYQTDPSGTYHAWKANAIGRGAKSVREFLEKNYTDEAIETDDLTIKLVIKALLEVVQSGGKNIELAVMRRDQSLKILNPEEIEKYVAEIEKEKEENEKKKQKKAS
UniProt Q14974: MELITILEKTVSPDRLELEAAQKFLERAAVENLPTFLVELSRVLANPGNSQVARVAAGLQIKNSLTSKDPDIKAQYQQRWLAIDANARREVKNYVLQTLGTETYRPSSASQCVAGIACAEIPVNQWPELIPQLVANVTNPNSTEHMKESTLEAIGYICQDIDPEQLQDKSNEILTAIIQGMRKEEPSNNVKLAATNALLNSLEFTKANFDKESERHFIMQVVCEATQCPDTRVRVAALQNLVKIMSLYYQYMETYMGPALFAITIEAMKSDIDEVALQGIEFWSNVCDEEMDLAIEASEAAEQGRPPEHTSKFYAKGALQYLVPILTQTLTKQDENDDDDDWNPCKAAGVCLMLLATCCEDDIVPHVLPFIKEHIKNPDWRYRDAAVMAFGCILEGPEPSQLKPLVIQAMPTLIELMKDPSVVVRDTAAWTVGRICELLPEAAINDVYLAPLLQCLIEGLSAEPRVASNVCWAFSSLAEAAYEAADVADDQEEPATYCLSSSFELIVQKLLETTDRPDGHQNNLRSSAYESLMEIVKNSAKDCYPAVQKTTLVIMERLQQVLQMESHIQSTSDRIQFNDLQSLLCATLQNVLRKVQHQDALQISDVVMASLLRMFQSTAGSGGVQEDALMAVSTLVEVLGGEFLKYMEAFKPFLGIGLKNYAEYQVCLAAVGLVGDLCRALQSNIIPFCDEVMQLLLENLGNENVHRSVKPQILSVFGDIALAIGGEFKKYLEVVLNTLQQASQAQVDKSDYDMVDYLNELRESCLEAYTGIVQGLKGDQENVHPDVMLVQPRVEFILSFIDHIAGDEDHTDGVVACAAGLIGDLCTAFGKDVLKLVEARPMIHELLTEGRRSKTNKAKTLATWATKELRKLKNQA

No constants are given. Whether binding was seen depends on the method and setting. In cells and extracts the contact can be indirect. Here binding means that the protein was enriched with, or labelled near, the bait; the list need not be complete.

The target of the assay is streptavidin-binding peptide-tagged wild-type androgen receptor (SBP-AR), stably expressed in N-AR cells (human) (UniProt P10275). The experiment in a line: affinity purification with mass spectrometry; SBP-AR captured on UltraLink Plus streptavidin beads from 10 mg cytosolic proteins of N-AR cells, androgen-depleted (vehicle, AD) or androgen-stimulated (100 nM R1881, 1 h, AS); overnight at 4 °C in 50 mM Tris, 100 mM KCl, 20% glycerol, 1.5 mM MgCl2, 0.2 mM ZnCl2, 5 mM DTT, 5 mM ATP, 0.025% Nonidet P-40; low-stringency washes; label-free directed MS; one biological replicate; no control purification without SBP-AR.
As to “PSMA7, a subunit of the catalytic 20S core proteasome (from UniProt O14818 1-248)”, the binding entry is “binds”.
Next, “karyopherin importin α (KPNA6) (from UniProt O60684 1-536)”: “binds”.
“karyopherin importin β (KPNB1) (from UniProt Q14974 1-876)”: the binding entry is reported as “binds”.
